PubChem BioAssay AID1259425, University of Nebraska Medical Center, 2018
Assay: 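Compare each knockdown with KSR1 silencing using changes in marker transcripts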 (primary screen). Cells: HCT116 human colon cancer cells. Reagents: siRNA pool against human genes, 50 nM siRNA. Read-out: 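mRNA of six signature genes measured together by branched-DNA assay after 50 nM siRNA pool, blank removed, divided by geometric mean of two housekeeping genes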. Scale: BNIP3L mRNA: higher = more BNIP3L transcript after knockdown.
This is one part, drawn at random, of about 14,000 reagents tested. Further read-outs or replicates are left out here. Not given: the time to read-out.

Knock-down of TMPRSS2 (transmembrane serine protease 2) gave: BNIP3L mRNA, set 1 = 0.126.
After knock-down of CPOX (coproporphyrinogen oxidase), the record shows BNIP3L mRNA, set 1 = 0.11.
For RETREG2 (reticulophagy regulator family member 2), the entry reads BNIP3L mRNA, set 1 = 0.101.
FAM193B (family with sequence similarity 193 member B) gave BNIP3L mRNA, set 1 = 0.1.
Against MPG (N-methylpurine DNA glycosylase), the values are BNIP3L mRNA, set 1 = 0.12.
After knock-down of LCN2 (lipocalin 2), the record shows BNIP3L mRNA, set 1 = 0.108.
After knock-down of SH2B2 (SH2B adaptor protein 2) the results were BNIP3L mRNA, set 1 = 0.103.
Depletion of ZZZ3 (zinc finger ZZ-type containing 3) resulted in: BNIP3L mRNA, set 1 = 0.148.
NCR2 (natural cytotoxicity triggering receptor 2) gave BNIP3L mRNA, set 1 = 0.218.
Knock-down of BTG1 (BTG anti-proliferation factor 1) gave: BNIP3L mRNA, set 1 = 0.0852.
Depletion of TRIP10 (thyroid hormone receptor interactor 10) resulted in: BNIP3L mRNA, set 1 = 0.0769.
IGSF1 (immunoglobulin superfamily member 1) showed BNIP3L mRNA, set 1 = 0.0581.

Quoted from above (2 entries):
BTG1 (BTG anti-proliferation factor 1) | BNIP3L mRNA, set 1: 0.0852
TRIP10 (thyroid hormone receptor interactor 10) | BNIP3L mRNA, set 1: 0.0769

The results go on.
After knock-down of BCL3 (BCL3 transcription coactivator) the results were BNIP3L mRNA, set 1 = 0.108.
Knock-down of SELENON (selenoprotein N) gave: BNIP3L mRNA, set 1 = 0.672.
For CD302 (CD302 molecule), the values are BNIP3L mRNA, set 1 = 0.0504.
EXPH5 (exophilin 5) scored BNIP3L mRNA, set 1 = 0.173.
After knock-down of COPS4 (COP9 signalosome subunit 4) the results were BNIP3L mRNA, set 1 = 0.146.
Against CCT5 (chaperonin containing TCP1 subunit 5), the entry reads BNIP3L mRNA, set 1 = 0.116.
IPO5 (importin 5) gave BNIP3L mRNA, set 1 = 0.053.
Against BLMH (bleomycin hydrolase) the deposit lists BNIP3L mRNA, set 1 = 0.126.
Silencing of ASPSCR1 (ASPSCR1 tether for SLC2A4, UBX domain containing) came out at: BNIP3L mRNA, set 1 = 0.11.
With knock-down of KLHL5 (kelch like family member 5), the screen gave BNIP3L mRNA, set 1 = 0.123.
Knock-down of PIK3R4 (phosphoinositide-3-kinase regulatory subunit 4) resulted in: BNIP3L mRNA, set 1 = 0.23.
Against PNPLA6 (patatin like domain 6, lysophospholipase) the deposit lists BNIP3L mRNA, set 1 = 0.0849.
INTS10 (integrator complex subunit 10) showed BNIP3L mRNA, set 1 = 0.0879.
For XRCC4 (X-ray repair cross complementing 4) the deposit lists BNIP3L mRNA, set 1 = 0.0317.
CRYAB (crystallin alpha B) scored BNIP3L mRNA, set 1 = 0.0464.
TAF10 (TATA-box binding protein associated factor 10) gave BNIP3L mRNA, set 1 = 0.124.
